Laboratory results: PubChem BioAssay (NCATS)
The inconclusive results got no clear call from the source; some entries with a clear call stand among them for comparison. For part of these data: Potencies of inconclusive entries are doubtful fits and often do not repeat. The source made the active and inactive calls. Calls come from the whole dose curve; as a rule, active = well fitted curve in the direction sought with a large enough effect; inconclusive = small, poorly fitted or top-dose-only effect, or another doubt; inactive = no such curve, though single readings can be large; an effect the other way counts as inactive or inconclusive.

By UniProt entry, the sequences of proteins in these tests, tags left out. Where a name states a change or a piece, a line headed by the entry shows the natural chain unless it says otherwise.
UniProt Q9UNA4: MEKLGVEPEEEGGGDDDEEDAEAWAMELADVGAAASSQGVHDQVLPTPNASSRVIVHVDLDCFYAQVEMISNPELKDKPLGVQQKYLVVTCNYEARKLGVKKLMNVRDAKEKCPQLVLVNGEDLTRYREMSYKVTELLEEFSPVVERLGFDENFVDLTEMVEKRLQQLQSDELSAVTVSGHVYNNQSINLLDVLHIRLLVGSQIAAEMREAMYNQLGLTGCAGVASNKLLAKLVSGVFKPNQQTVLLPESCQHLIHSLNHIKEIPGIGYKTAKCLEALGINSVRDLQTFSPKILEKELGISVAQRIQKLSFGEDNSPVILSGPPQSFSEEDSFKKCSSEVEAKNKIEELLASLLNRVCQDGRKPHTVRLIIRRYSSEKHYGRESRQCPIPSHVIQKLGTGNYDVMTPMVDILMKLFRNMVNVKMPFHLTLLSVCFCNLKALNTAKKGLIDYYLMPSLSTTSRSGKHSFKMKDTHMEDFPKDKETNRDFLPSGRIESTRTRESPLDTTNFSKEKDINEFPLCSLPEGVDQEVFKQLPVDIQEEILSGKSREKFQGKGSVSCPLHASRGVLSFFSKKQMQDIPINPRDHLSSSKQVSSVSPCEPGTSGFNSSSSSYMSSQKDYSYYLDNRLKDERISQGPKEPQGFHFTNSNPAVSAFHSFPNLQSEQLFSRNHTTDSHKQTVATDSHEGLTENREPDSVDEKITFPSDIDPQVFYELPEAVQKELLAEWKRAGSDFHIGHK
UniProt Q8WZA2: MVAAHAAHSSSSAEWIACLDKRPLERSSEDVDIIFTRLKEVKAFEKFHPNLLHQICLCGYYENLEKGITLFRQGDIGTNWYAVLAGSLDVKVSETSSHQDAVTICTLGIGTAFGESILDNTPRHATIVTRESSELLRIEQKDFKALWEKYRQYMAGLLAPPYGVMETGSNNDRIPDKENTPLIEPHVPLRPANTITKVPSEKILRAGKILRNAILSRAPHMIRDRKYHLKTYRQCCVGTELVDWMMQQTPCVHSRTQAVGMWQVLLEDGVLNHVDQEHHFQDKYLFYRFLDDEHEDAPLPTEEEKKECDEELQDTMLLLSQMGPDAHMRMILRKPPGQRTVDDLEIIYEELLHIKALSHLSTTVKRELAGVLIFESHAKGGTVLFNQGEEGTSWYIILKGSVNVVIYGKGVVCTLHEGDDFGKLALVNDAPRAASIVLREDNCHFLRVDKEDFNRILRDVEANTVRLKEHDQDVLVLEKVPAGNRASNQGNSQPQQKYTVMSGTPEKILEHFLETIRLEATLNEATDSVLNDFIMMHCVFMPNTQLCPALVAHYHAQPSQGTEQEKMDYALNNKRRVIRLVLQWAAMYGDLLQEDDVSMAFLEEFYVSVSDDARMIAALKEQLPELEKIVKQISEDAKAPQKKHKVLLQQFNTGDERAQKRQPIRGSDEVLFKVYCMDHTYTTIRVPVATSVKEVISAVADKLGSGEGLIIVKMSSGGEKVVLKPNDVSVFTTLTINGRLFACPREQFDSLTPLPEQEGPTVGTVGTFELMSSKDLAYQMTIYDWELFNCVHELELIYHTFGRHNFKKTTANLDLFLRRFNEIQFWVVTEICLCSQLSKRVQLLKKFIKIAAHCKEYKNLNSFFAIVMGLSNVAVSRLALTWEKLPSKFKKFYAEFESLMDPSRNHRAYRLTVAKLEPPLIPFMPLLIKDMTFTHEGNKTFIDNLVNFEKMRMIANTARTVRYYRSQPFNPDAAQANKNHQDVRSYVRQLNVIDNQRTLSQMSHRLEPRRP
UniProt Q9Y253: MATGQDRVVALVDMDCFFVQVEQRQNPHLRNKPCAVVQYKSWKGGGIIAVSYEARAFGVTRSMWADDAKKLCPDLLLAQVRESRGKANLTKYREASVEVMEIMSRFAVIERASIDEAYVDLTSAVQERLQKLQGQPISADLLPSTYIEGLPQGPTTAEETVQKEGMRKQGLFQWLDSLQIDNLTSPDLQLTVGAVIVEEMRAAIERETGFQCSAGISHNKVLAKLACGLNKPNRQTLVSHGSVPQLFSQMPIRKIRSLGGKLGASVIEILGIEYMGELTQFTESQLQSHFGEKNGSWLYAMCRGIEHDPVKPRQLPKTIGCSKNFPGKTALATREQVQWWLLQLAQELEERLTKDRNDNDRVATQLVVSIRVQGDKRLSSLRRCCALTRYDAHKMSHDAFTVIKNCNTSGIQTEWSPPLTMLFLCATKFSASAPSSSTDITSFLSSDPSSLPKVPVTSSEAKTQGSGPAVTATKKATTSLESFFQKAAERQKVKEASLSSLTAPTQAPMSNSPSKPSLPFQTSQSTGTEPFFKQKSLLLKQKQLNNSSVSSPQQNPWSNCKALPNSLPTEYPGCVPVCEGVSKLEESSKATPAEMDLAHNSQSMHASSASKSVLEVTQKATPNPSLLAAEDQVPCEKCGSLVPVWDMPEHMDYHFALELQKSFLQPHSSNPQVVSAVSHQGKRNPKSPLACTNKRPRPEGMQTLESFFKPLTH
UniProt Q9UBT6: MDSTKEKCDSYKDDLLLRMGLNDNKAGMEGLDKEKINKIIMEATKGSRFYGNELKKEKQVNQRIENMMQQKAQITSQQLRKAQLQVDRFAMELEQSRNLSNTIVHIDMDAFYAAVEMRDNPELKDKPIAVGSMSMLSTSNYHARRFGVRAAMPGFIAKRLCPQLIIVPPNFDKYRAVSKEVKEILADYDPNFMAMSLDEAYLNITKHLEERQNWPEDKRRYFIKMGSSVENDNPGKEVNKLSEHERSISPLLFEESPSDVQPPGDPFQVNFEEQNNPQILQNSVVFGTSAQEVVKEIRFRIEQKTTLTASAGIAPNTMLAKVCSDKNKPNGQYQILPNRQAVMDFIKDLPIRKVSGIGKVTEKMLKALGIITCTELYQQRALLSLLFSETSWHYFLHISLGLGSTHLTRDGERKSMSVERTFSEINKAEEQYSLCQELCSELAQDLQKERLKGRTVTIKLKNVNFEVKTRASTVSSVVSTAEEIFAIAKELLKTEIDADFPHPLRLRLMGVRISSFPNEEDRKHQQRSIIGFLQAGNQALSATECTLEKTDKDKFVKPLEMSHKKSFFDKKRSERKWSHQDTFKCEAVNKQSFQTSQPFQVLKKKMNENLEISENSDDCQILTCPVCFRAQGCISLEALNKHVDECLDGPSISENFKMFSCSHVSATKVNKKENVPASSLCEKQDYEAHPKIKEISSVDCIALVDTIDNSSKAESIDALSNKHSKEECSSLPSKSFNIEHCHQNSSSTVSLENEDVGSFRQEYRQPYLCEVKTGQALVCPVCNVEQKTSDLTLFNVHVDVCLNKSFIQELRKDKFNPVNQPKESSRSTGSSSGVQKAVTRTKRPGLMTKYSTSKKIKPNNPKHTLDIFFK
UniProt Q99816: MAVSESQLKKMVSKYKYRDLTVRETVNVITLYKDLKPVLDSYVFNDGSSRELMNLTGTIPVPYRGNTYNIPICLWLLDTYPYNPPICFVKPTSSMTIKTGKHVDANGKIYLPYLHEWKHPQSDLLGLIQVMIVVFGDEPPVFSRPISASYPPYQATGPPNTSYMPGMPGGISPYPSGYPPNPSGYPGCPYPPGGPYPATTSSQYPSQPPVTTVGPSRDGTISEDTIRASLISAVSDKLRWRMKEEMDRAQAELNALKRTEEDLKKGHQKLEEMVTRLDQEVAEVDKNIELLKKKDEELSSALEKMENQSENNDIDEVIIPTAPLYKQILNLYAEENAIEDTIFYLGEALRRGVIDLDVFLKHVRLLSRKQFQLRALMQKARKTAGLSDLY
UniProt Q14191, whole entry, looked up: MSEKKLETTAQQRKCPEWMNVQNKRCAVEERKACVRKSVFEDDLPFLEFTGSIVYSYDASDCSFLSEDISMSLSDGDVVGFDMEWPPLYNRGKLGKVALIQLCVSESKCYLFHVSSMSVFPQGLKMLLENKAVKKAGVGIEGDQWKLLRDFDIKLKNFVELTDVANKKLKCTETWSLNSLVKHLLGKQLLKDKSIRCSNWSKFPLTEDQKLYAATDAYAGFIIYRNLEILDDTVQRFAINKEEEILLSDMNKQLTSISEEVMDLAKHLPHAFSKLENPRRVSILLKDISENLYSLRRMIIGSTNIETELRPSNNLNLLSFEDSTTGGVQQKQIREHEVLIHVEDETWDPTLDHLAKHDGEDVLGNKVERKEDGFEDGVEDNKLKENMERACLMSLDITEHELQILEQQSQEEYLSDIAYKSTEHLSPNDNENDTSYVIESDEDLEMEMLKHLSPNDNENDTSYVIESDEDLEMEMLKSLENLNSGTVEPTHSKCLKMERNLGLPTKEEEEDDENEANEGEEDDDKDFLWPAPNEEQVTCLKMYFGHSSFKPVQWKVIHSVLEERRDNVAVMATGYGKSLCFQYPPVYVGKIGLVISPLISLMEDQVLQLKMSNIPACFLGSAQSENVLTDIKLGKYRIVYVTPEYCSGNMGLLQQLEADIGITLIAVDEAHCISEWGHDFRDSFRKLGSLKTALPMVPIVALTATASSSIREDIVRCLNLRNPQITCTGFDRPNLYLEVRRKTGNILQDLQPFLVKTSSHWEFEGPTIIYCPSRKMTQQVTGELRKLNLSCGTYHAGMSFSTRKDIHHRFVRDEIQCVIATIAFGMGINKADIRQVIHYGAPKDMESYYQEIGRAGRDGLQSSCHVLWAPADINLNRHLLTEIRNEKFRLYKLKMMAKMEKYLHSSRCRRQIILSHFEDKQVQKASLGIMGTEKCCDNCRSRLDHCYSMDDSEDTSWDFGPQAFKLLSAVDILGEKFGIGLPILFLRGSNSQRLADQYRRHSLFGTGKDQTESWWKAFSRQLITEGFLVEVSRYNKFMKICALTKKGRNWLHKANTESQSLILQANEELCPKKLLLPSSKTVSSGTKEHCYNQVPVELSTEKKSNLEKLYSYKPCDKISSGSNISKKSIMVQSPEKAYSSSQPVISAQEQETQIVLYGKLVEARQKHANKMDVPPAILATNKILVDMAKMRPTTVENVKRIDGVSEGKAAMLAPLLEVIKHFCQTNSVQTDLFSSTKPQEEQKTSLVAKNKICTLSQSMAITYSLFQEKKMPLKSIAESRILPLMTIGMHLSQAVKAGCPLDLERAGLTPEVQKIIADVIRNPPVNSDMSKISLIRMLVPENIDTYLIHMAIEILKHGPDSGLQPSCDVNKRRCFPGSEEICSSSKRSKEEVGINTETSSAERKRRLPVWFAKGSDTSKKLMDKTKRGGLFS

Columns and labels:
[1] = target: DNA polymerase iota (Homo sapiens) (UniProt Q9UNA4); assay: qHTS for Inhibitors of Polymerase Iota: Confirmatory Assay for Cherry-picked Compounds (AID 720496); settings: Pol iota primer extension, TAMRA/BHQ fluorescence
Summary of the method: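 Step 1: 10 nM Pol iota with compound, 15 min, room temperature. Step 2: 50 nM final quenched DNA substrate added. Step 3: fluorescence (ex 525, em 598 nm) read at 0 and after 10 min.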

[2] = qHTS for Inhibitors of WRN Helicase: Thiazole Orange DNA Binding Counterscreen (AID 720499); settings: thiazole orange DNA binding displacement, fluorescence; series mostly up to 57.1 µM;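 note: drop in dye fluorescence marks compound binding to DNA; nearly all actives have a fitted effect of over 60% in size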
Summary of the method: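 Compounds were pin-transferred into 50 nM unlabeled DNA premixed with 100 nM thiazole orange. After 15 min at room temperature, fluorescence (ex 480 nm, em 530 nm) was read; loss of signal flags dye displacement from nonspecific DNA binders.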

[3] = target: Rap guanine nucleotide exchange factor 3 (Homo sapiens) (UniProt O95398); assay: Confirmatory qHTS for antagonist of cAMP-regulated guanine nucleotide exchange factor 3 (EPAC1) (AID 1645880); settings: EPAC1 Rap1B-BODIPY-GDP exchange, fluorescence; activity, negative = inhibition: at 115 µM (top of the series); note: nearly all actives have a fitted effect of over 55% in size;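 for activity, negative = inhibition: plate controls were DMSO only for no effect and full effect of the ATA control for full effect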
Summary of the method: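 Nucleotide exchange uses 100 nM EPAC1, 250 nM RAP1B-BODIPY-GDP and 50 uM GDP, with compounds in a concentration-titration series. After 5 min at room temperature, fluorescence (480 nm ex/540 nm em) is read every 5 min for 30 min. Data are normalized to control ATA and DMSO.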

[4] = target: Rap guanine nucleotide exchange factor 4 (Homo sapiens) (UniProt Q8WZA2); assay: Confirmatory qHTS for antagonist of cAMP-regulated guanine nucleotide exchange factor 4 (EPAC2) (AID 1645885); settings: EPAC2 Rap1B-BODIPY-GDP exchange fluorescence, biochemical; activity change, negative = inhibition: at 12.7 µM (top of the series) unless noted; series mostly up to 114 µM; note: nearly all actives have a fitted effect of over 25% in size; for activity change, negative = inhibition: % is set by controls: 0 for no effect and ±100 for the full control effect
[5] = target: Rap guanine nucleotide exchange factor 3 (Homo sapiens) (UniProt O95398); assay: Counterscreen qHTS for agonist of cAMP-regulated guanine nucleotide exchange factor 3 (EPAC1) (AID 1645889); settings: EPAC1 Rap1B-BODIPY-GDP exchange, fluorescence; activation: at 154 µM (top of the series) unless noted; note: nearly all actives have a fitted effect of over 40% in size; for activation: % of control where 0% means no effect
Summary of the method: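 Measured: fluorescence of BODIPY-GDP bound to Rap1B, which falls as exchange proceeds. Conditions include 50 uM competing GDP, 5 and 30 min reads, and a later cAMP challenge for antagonist detection.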

[6] = qHTS for Inhibitors of the vitamin D receptor (VDR): Hit Validation using a Texas Red Assay (AID 602201); settings: VDR coregulator binding, Texas Red fluorescence polarization, agonist-bound VDR ligand-binding domain; series mostly up to 57.1 µM
Summary of the method: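 Fluorescence polarization (Ex 595/Em 615 nm) of Texas Red (7 nM) with 1.5 uM VDR-LBD and LG19078 (final concentrations). Compounds were incubated for 2 hours at room temperature.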

[7] = target: DNA polymerase eta (Homo sapiens) (UniProt Q9Y253); assay: qHTS for Inhibitors of Polymerase Eta: Confirmatory Assay for Cherry-picked Compounds (AID 720502); settings: Pol eta primer extension, TAMRA/BHQ fluorescence, 10 min
Summary of the method: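 Readout: TAMRA dequenching, ex 525/em 598 nm, read at 0 and 10 min. Enzyme: 10 nM human Pol eta, preincubated with compound 15 min RT. Substrate: 50 nM final annealed primer/reporter/template duplex.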

[8] = target: DNA polymerase kappa (Homo sapiens) (UniProt Q9UBT6); assay: qHTS for Inhibitors of Polymerase Kappa: Confirmatory Assay for Cherry-picked Compounds (AID 720501); settings: purified Pol-kappa, fluorescent strand-displacement substrate
Summary of the method: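 Human Pol-kappa, dispensed at 10 nM, was preincubated with compounds for 15 min at room temperature. Reactions were started with primer/template substrate (50 nM final) carrying a TAMRA reporter strand and BHQ-2-quenched template, and fluorescence (ex 525/em 598 nm) was read at 0 and 10 min.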

[9] = target: Tumor susceptibility gene 101 protein (Homo sapiens) (UniProt Q99816); assay: qHTS Assay for Iinhibitors of HIV-1 Budding by Blocking the Interaction of PTAP/TSG101: Hit Validation (AID 651600); settings: PTAP peptide/TSG101 UEV interaction, biochemical assay; series mostly up to 57.5 µM; note: nearly all actives have a fitted effect of over 70% in size
Summary of the method: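 Fluorescence polarization binding assay: Tsg101 binding domain (10 uM final) pre-dispensed with compounds, then FITC-labeled PTAP-motif peptide (50 nM final) added; 20 min at r.t. in HEPES pH 7.5 buffer with NaCl, Tween 20, EDTA, TCEP.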

[10] = target: Bifunctional 3'-5' exonuclease/ATP-dependent helicase WRN (Homo sapiens) (UniProt Q14191); assay: qHTS for Inhibitors of WRN Helicase: Confirmatory Assay for Cherry-picked Compounds. (AID 720497); settings: WRN helicase DNA unwinding, fluorescence kinetic; series mostly up to 57.1 µM; note: nearly all actives have a fitted effect of over 65% in size
Summary of the method: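 WRN at 20 nM final was preincubated with compound for 15 min at room temperature; the reaction was started with 100 nM forked duplex oligonucleotide and 2 mM ATP (final). Red fluorescence (ex 525/em 598 nm) was read kinetically, with inhibition normalized to enzyme-only and buffer-only wells.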

[11] = target: ATPase family AAA domain-containing protein 5 (Homo sapiens) (UniProt Q96QE3); assay: qHTS screen for small molecules that inhibit ELG1-dependent DNA repair in human embryonic kidney (HEK293T) cells expressing luciferase-tagged ELG1: Hit Confirmation using MMS Stimulated ELG1 (AID 624249); settings: HEK293T luciferase-tagged ELG1 level; note: nearly all actives have a fitted effect of over 60% in size
Summary of the method: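 ELG1-luciferase HEK293T cells were plated at 2,000 cells/well, and about 5 h later test compounds were pin-transferred alongside MMS (final 10 µM). After 16 h, luciferase activity was read with Amplight reagent; hits suppress the signal.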

[12] = qHTS screen for small molecules that inhibit ELG1-dependent DNA repair: Hit Confirmation with 5FU Viability (AID 624250); settings: cell viability with 5-FU; series mostly up to 46.1 µM;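 note: viability measured 16 h after compound addition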
Summary of the method: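 HEK293T ELG1-luc cells seeded, dosed ~5 h later (compound; 5-FUrd 10 µM final), incubated 16 h. Read: CellTiter-Glo viability.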

[13] = qHTS screen for small molecules that inhibit ELG1-dependent DNA repair: Hit Confirmation with MMS Viability (AID 624251); settings: Cell viability with MMS; note: nearly all actives have a fitted effect of over 60% in size
Summary of the method: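 ELG1-luc HEK293T cells were plated, then about 5 h later received compounds by pin transfer plus MMS at 10 µM final. Viability was read by CellTiter-Glo luminescence after 16 h.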
Potency is the fitted concentration of half-maximal effect.

For `CCOC(=O)C1CCCN(C(=O)c2cc(-c3ccco3)nc3ccccc23)C1` (centres undefined), which Potency [1] is on record?
Its Potency is active: 18.9 µM.

And the Potency [2]?
The Potency was inconclusive: 27.1 µM [inhibitor, partial curve].

What about the Potency [3] of the same compound?
The Potency was active: 15.1 µM.

What about the Potency [4] of the same compound?
The Potency was inconclusive: 95.3 µM [inhibitor, partial curve, poor fit].

And the Potency [5]?
Its Potency is “inactive”.

Which Potency [6] does the source give for `O=C(NC1(O)C(=O)c2ccccc2C1=O)c1c(Cl)cccc1Cl` here?
The Potency was active: 3.98 µM.

What about the Potency [7] of the same compound?
The Potency was inconclusive: 84.9 µM [inhibitor, single point].

And the Potency [3]?
The Potency was inconclusive: 21.3 µM [inhibitor, full curve].

What about the Potency [4] of the same compound?
The Potency was inconclusive: 37.9 µM [inhibitor, single point].

What about the Potency [5] of the same compound?
The Potency was inconclusive: 17.8 µM [activator, partial curve, poor fit].

Which results are given for `Cc1cc(/C=C2\SC(=S)NC2=O)c(C)n1-c1ccc(O)cc1`?
Potency [8]: inconclusive: 84.4 µM [inhibitor, single point]; Potency [3]: active: 84.9 µM; Potency [4]: inconclusive: 75.7 µM [inhibitor, partial curve]; Potency [5]: inactive

For `Cc1ccc(C)c2nc3sc(C(=O)N4CCCc5ccccc54)c(N)c3cc12`, which Potency [9] is on record?
Its Potency is active: 20.6 µM.

And the Potency [3]?
Its Potency is “inactive”.

What about the Potency [4] of the same compound?
Its Potency is “inactive”.

And the Potency [5]?
Its Potency is inconclusive: 0.708 µM [activator, full curve, poor fit].

With `COc1cc(/C=C2\SC(=S)N(NC(=O)c3ccc(O)c(OC)c3)C2=O)ccc1O` as the compound, how does the Potency [10] read?
The Potency was active: 19.2 µM.

And the Potency [3]?
Its Potency is inconclusive: 67.5 µM [inhibitor, partial curve].

And the Potency [4]?
Its Potency is inconclusive: 67.5 µM [inhibitor, partial curve].

And the Potency [5]?
The Potency was “inactive”.

For `COc1ccc(CCN2C(=O)CSC2=Nc2ccc(C(C)C)cc2)cc1OC`, which Potency [11] is on record?
The Potency was active: 2.5 µM.

What about the Potency [12] of the same compound?
Its Potency is inconclusive: 28.1 µM [cytotoxic, partial curve].

What about the Potency [13] of the same compound?
Its Potency is active: 1.99 µM.

What about the Potency [3] of the same compound?
The Potency was inconclusive: 53.6 µM [inhibitor, partial curve].

What about the Potency [4] of the same compound?
Its Potency is inconclusive: 47.8 µM [inhibitor, partial curve, poor fit].

What about the Potency [5] of the same compound?
The Potency was inconclusive: 14.1 µM [activator, partial curve].

With `Cc1ccc(S(=O)(=O)N2[C@@H](c3cccc(Cl)c3)C(C(=O)O)=CC[C@H]2c2ccc(C(C)C)cc2)cc1` as the compound, how does the Potency [8] read?
Its Potency is inconclusive: 75.2 µM [inhibitor, single point].

And the Potency [3]?
The Potency was active: 67.5 µM.

And the Potency [4]?
The Potency was inconclusive: 47.8 µM [inhibitor, partial curve].

And the Potency [5]?
Its Potency is inconclusive: 2.51 µM [activator, full curve, poor fit].

With `COc1ccc(-c2csc(NC(=O)c3ccccc3NS(=O)(=O)c3ccc(F)c(F)c3)n2)cc1` as the compound, how does the Potency [1] read?
The Potency was inconclusive: 84.4 µM [inhibitor, single point].

What about the Potency [8] of the same compound?
Its Potency is inconclusive: 84.4 µM [inhibitor, single point].

And the Potency [7]?
The Potency was inconclusive: 84.9 µM [inhibitor, single point].

What about the Potency [3] of the same compound?
Its Potency is active: 22.4 µM.

And the Potency [4]?
Its Potency is inconclusive: 6.01 µM [inhibitor, single point].

And the Potency [5]?
Its Potency is inconclusive: 0.0631 µM [activator, full curve, poor fit].

For `Cc1cc(NC2=CC(=O)C(=O)c3ccccc32)no1`, which Potency [7] is on record?
The Potency was inconclusive: 84.9 µM [inhibitor, single point].

What about the Potency [3] of the same compound?
The Potency was inconclusive: 42.6 µM [inhibitor, partial curve].

What about the Potency [4] of the same compound?
The Potency was inconclusive: 95.3 µM [inhibitor, partial curve, poor fit].

And the activation [5]?
Its activation is inconclusive: 55.8% [activator].

What does the source list for `CCOC(=O)C1=C(C)N=c2s/c(=C/c3ccc(OCC(=O)O)cc3)c(=O)n2C1c1ccc(F)cc1` (centres undefined)?
Potency [8]: inconclusive: 84.4 µM [inhibitor, single point]; Potency [3]: inconclusive: 30.1 µM [inhibitor, partial curve]; Potency [4]: inconclusive: 37.9 µM [inhibitor, single point]; Potency [5]: inconclusive: 12.6 µM [activator, single point]

With `CCCc1cc(=O)[nH]c(SCC(=O)Nc2sc3c(c2C#N)CCC(C)C3)n1` (centres undefined) as the compound, how does the Potency [7] read?
The Potency was inconclusive: 84.9 µM [inhibitor, single point].

What about the Potency [3] of the same compound?
Its Potency is active: 89.1 µM.

And the Potency [4]?
The Potency was active: 0.135 µM.

And the Potency [5]?
Its Potency is inconclusive: 0.112 µM [activator, full curve, poor fit].

Which results are given for `COc1cc(CCc2ccccc2)c(C(=O)O)c(O)c1C/C=C(/C)CCC=C(C)C`?
Potency [8]: inconclusive: 84.4 µM [inhibitor, single point]; Potency [3]: active: 42.6 µM; Potency [4]: active: 75.7 µM; Potency [5]: inactive
